Test results published in publication PMC4034400.
Results are given in words; binding and its absence hold for the method and conditions named. In cells and extracts the contact can be indirect. For some assays here: A result given as binding can be weak or reduced; the word gives no strength. For some assays here: Where a sequence is shown, tags or fusion partners need not be part of it. Blank lines part the entries; values can stand above or below the molecule they belong to.

Chains of the proteins cited; added tags and fusions are not shown. Lines headed by an entry give the natural chain unless they say otherwise; changes in a name come on top.
UniProt Q9VWQ1: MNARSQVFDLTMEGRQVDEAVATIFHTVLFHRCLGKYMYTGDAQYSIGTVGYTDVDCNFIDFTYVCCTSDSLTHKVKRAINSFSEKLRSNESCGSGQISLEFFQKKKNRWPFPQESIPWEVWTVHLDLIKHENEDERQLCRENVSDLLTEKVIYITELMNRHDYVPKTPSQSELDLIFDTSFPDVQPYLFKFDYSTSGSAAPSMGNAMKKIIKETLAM

Key:
[1] = target: Atg101-3xFLAG (Drosophila) (UniProt Q9VWQ1); assay: co-IP; transfected Drosophila D.Mel-2 cells; the FLAG-tagged Atg101 precipitated (anti-FLAG beads), the HA-tagged partner detected; beads alone as control
[2] = target: 3xFLAG-Atg101 (Drosophila) (UniProt Q9VWQ1); assay: as above
[3] = target: T1, 3xHA-GST-Atg1 fragment 364–459 (Drosophila) (UniProt Q9VU14); assay: co-IP; transfected Drosophila D.Mel-2 cells; the HA-tagged protein precipitated (anti-HA beads), the myc- or FLAG-tagged partner detected; beads alone as control
T1 sequence: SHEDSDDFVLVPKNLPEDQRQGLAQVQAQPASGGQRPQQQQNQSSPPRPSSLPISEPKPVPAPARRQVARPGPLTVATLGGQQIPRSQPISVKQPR

[4] = target: T2, 3xHA-GST-Atg1 fragment 233–360 (Drosophila) (UniProt Q9VU14); assay: as above
T2 sequence: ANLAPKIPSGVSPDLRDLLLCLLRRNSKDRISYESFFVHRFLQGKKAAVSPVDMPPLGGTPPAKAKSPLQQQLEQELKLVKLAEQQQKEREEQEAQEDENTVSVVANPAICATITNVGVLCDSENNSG

[5] = target: 3xHA-Atg101 (Drosophila) (UniProt Q9VWQ1); assay: as above
[6] = target: T3, 3xHA-GST-Atg1 fragment 565–725 (Drosophila) (UniProt Q9VU14); assay: as above
T3 sequence: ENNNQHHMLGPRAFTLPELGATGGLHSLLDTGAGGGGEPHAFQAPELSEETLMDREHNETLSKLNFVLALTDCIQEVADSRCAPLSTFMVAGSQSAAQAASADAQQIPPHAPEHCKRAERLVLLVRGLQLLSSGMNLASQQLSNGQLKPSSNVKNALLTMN

[7] = target: T4, 3xHA-GST-Atg1 fragment 461–570 (Drosophila) (UniProt Q9VU14); assay: as above
T4 sequence: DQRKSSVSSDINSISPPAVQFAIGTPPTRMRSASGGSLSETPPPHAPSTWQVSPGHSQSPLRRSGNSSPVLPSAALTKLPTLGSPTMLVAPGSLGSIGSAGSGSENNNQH

[8] = target: T5, full-length 3xHA-Atg13 (Drosophila) (UniProt Q9VHR6); assay: as above
T5 sequence: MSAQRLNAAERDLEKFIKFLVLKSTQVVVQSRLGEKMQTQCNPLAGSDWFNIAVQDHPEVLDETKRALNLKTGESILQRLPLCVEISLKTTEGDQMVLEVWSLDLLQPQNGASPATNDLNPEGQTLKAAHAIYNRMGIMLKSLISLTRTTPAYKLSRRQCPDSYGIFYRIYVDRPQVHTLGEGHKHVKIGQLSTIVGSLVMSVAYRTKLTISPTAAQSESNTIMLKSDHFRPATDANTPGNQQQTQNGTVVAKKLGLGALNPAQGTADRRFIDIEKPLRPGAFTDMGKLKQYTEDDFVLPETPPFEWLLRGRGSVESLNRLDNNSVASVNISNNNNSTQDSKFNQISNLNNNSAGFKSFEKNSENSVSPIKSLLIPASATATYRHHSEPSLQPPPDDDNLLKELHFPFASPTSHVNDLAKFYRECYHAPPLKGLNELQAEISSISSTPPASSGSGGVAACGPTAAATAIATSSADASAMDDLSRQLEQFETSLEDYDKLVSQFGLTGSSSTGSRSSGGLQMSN

Molecule: 3xHA-Atg101 (from UniProt Q9VWQ1)
binding [1]: binds | binding [2]: binds

Molecule: Atg101-3xFLAG (from UniProt Q9VWQ1)
binding [3]: no binding | binding [4]: binds | binding [5]: binds | binding [6]: binds | binding [7]: no binding

B2: HA-GFP-Atg13 fragment 1–230 (domain or fragment, UniProt Q9VHR6 1-230)
chain: MSAQRLNAAERDLEKFIKFLVLKSTQVVVQSRLGEKMQTQCNPLAGSDWFNIAVQDHPEVLDETKRALNLKTGESILQRLPLCVEISLKTTEGDQMVLEVWSLDLLQPQNGASPATNDLNPEGQTLKAAHAIYNRMGIMLKSLISLTRTTPAYKLSRRQCPDSYGIFYRIYVDRPQVHTLGEGHKHVKIGQLSTIVGSLVMSVAYRTKLTISPTAAQSESNTIMLKSDHF
binding [1]: binds

B3: HA-GFP-Atg13 fragment 1–398 (domain or fragment, UniProt Q9VHR6 1-398)
chain: MSAQRLNAAERDLEKFIKFLVLKSTQVVVQSRLGEKMQTQCNPLAGSDWFNIAVQDHPEVLDETKRALNLKTGESILQRLPLCVEISLKTTEGDQMVLEVWSLDLLQPQNGASPATNDLNPEGQTLKAAHAIYNRMGIMLKSLISLTRTTPAYKLSRRQCPDSYGIFYRIYVDRPQVHTLGEGHKHVKIGQLSTIVGSLVMSVAYRTKLTISPTAAQSESNTIMLKSDHFRPATDANTPGNQQQTQNGTVVAKKLGLGALNPAQGTADRRFIDIEKPLRPGAFTDMGKLKQYTEDDFVLPETPPFEWLLRGRGSVESLNRLDNNSVASVNISNNNNSTQDSKFNQISNLNNNSAGFKSFEKNSENSVSPIKSLLIPASATATYRHHSEPSLQPPPDDD
binding [1]: binds

B4: HA-GFP-Atg13 fragment 231–398 (domain or fragment, UniProt Q9VHR6 231-398)
chain: RPATDANTPGNQQQTQNGTVVAKKLGLGALNPAQGTADRRFIDIEKPLRPGAFTDMGKLKQYTEDDFVLPETPPFEWLLRGRGSVESLNRLDNNSVASVNISNNNNSTQDSKFNQISNLNNNSAGFKSFEKNSENSVSPIKSLLIPASATATYRHHSEPSLQPPPDDD
binding [1]: no binding

Next, values leading:

binding [8]: binds
Molecule: N-terminally truncated 3xFLAG-ref(2)P lacking the PB1 domain (Drosophila) (domain or fragment)

binding [5]: binds
Molecule: kinase dead myc-Atg1 (from UniProt Q9VU14) (enzyme)

binding [1]: binds
B1: full-length 3xHA-Atg13 (protein, UniProt Q9VHR6 1-523)
chain: T5 sequence

binding [1]: no binding
B5: HA-GFP-Atg13 fragment 393–523 (domain or fragment, UniProt Q9VHR6 393-523)
chain: PPPDDDNLLKELHFPFASPTSHVNDLAKFYRECYHAPPLKGLNELQAEISSISSTPPASSGSGGVAACGPTAAATAIATSSADASAMDDLSRQLEQFETSLEDYDKLVSQFGLTGSSSTGSRSSGGLQMSN
